Laboratory results as given in article doi:10.1101/2022.09.23.509242.
Like-named read-outs stand apart in the source and are kept apart here. These are yes or no findings as the source states them, for the method shown. Binding can be weak; no strength is given. Tags and fused reporters may be left off the sequences shown.

Experiments:
Assay in all cases: native gel or EMSA
FLAG-tagged Brn4 [1] = target: T1, FLAG-tagged Brn4 (UniProt P62515)
T1 sequence: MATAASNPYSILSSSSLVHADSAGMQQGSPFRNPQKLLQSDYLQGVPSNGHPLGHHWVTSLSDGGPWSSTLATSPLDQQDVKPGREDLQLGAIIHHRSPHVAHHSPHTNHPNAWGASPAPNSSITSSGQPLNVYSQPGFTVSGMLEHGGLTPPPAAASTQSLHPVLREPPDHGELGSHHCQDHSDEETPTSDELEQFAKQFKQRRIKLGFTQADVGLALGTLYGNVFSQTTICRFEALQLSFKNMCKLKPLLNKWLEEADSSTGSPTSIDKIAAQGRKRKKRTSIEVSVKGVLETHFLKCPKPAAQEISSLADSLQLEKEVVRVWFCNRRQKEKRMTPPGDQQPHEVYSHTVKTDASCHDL

FLAG-tagged Brn4 [2] = target: T1, FLAG-tagged Brn4; remark: listed apart in the source
[3] = target: T2, FLAG-tagged Oct1 (Pou2f1) (UniProt P25425)
T2 sequence: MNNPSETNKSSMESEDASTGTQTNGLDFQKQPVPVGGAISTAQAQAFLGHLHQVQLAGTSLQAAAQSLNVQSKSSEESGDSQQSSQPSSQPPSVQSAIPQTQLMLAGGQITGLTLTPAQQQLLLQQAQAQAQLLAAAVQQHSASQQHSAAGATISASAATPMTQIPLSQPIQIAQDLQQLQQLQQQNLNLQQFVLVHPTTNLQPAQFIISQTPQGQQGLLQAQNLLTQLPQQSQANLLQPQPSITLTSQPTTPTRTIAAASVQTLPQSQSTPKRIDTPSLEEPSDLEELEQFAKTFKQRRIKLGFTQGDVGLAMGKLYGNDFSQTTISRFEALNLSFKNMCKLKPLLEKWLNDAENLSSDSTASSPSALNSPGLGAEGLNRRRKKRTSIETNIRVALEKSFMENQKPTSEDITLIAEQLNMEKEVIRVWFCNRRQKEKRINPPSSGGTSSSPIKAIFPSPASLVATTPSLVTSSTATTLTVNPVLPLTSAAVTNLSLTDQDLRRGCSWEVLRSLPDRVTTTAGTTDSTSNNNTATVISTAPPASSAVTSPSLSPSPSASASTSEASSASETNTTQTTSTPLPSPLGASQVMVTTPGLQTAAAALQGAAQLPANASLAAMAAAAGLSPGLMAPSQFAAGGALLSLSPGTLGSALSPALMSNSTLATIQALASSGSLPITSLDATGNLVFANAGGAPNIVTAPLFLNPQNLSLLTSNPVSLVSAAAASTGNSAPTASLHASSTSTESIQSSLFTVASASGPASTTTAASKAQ

[4] = target: T3, FLAG-tagged Oct6 (Pou3f1) (UniProt P21952)
T3 sequence: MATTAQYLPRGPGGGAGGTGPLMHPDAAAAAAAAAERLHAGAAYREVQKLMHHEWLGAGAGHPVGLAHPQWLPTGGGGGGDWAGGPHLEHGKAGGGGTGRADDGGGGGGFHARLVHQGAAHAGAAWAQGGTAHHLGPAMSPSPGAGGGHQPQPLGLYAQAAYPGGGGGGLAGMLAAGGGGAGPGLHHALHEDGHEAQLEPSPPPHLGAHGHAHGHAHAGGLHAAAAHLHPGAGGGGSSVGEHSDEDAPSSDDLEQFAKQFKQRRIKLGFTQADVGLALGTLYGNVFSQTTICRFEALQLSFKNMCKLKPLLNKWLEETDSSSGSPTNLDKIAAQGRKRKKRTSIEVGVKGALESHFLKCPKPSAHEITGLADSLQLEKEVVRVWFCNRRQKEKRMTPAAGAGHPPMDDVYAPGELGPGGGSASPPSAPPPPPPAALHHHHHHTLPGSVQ

Measured: binding

Sox2^A61V, overexpressed in HEK293 (mouse)
binds: all assays above
